Measured values from publication PMC2134945.
No constants are given. Whether binding was seen depends on the method and setting. In cells and extracts the contact can be indirect. Where a sequence is shown, tags or fusion partners need not be part of it.

Sequences of proteins named here, by UniProt entry; tags and fusion partners are left off.
UniProt P06241: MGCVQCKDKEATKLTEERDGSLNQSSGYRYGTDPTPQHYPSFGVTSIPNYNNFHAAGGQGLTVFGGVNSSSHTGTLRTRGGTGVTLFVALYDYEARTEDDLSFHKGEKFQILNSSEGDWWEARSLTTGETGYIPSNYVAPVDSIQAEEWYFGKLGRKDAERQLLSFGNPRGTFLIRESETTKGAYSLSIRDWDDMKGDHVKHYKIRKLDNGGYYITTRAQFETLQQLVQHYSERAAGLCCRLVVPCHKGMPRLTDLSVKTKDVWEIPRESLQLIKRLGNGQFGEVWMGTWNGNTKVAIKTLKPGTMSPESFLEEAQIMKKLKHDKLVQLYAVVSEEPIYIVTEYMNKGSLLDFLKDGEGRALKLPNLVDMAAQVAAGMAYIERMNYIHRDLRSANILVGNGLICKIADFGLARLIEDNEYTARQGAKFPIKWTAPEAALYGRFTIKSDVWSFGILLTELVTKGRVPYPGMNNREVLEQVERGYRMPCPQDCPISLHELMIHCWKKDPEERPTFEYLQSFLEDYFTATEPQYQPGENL

Target: T1, FLAG-tagged PR55γ (U2-OS) (human) (UniProt Q9Y2T4)
T1 sequence: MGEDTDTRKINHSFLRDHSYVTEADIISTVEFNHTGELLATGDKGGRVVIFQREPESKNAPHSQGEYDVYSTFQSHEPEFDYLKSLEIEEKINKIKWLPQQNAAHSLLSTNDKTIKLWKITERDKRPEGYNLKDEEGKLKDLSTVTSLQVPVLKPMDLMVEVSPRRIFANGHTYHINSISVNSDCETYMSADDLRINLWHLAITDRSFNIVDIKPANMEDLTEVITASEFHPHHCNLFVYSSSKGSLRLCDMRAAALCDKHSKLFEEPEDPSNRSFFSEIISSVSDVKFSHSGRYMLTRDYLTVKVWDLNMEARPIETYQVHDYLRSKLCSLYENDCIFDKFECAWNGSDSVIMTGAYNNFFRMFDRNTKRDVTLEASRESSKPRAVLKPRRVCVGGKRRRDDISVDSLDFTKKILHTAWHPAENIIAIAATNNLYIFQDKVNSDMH
Assay: co-IP; U2-OS cells, transfected, lysed 48 h later in ELB (0.25 M NaCl, 0.1% NP-40, 50 mM HEPES pH 7.3); lysate 2 h with 2 ug antibody to the bait on protein A or G sepharose, or anti-FLAG M2 affinity gel; three washes in ELB; immunoblot; no UV

binding: no binding
Substance: FYN (from UniProt P06241 1-537)
